PubChem BioAssay AID1224826 | NIAID | 2016

Test: 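Genes that change LPS-induced Tnf promoter activity in mouse macrophages when knocked down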 (primary screen)
System: RAW264.7 G9 macrophages from mouse bearing reporters for p65 (GFP) and the Tnf promoter (mCherry)
Reagent: siRNA pool against mouse genes, 100 nM
Time to read-out: 16 h of LPS stimulation, after 2 days of siRNA transfection
Conditions: bacterial lipopolysaccharide (Salmonella minnesota R595), 10 ng/ml
Detection: 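Imaged Tnf reporter mCherry in nuclei, minus background, normalised per plate to the median and expressed as robust z-scores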
Direction: Tnf reporter robust z-score: higher = stronger Tnf promoter reporter signal after LPS
Call rule: 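a well counts as active at a score of -1.3 or below (Tlr4 knock-down control median) or above 3 (raised signal); controls and wells holding fewer than 50 cells are excluded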
Meaning of the calls: active = Tnf reporter clearly lowered or raised; inactive = no clear change in Tnf reporter
In all, the deposit lists about 17,000 reagents; below is an unselected part. About 1,110 of all reagents (6.6%) count as active. 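Active means lowered or raised reporter signal; replicate intensities are raw and not normalised per plate.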 Further read-outs or replicates are left out here.

Nup155 | Tnf reporter robust z-score = 0.03; fewer than 50 cells in well = enough cells in well; outcome = inactive
Spata4 | Tnf reporter robust z-score = 0.74; fewer than 50 cells in well = enough cells in well; outcome = inactive
Mefv | Tnf reporter robust z-score = -0.37; fewer than 50 cells in well = enough cells in well; outcome = inactive
Trpc6 | Tnf reporter robust z-score = -0.69; fewer than 50 cells in well = enough cells in well; outcome = inactive
Naa16 | Tnf reporter robust z-score = -0.74; fewer than 50 cells in well = enough cells in well; outcome = inactive
Cd109 | Tnf reporter robust z-score = 0.01; fewer than 50 cells in well = enough cells in well; outcome = inactive
Alx4 | Tnf reporter robust z-score = 0.73; fewer than 50 cells in well = enough cells in well; outcome = inactive
Or8b43 | Tnf reporter robust z-score = 1.96; fewer than 50 cells in well = enough cells in well; outcome = inactive
Atp5if1 | Tnf reporter robust z-score = 0.17; fewer than 50 cells in well = enough cells in well; outcome = inactive
2900060N12Rik | Tnf reporter robust z-score = -1.14; fewer than 50 cells in well = enough cells in well; outcome = inactive
Cacng5 | Tnf reporter robust z-score = -0.59; fewer than 50 cells in well = enough cells in well; outcome = inactive
Tbca | Tnf reporter robust z-score = -1.37; fewer than 50 cells in well = enough cells in well; outcome = active
Cbr1 | Tnf reporter robust z-score = -0.71; fewer than 50 cells in well = enough cells in well; outcome = inactive
Irx3 | Tnf reporter robust z-score = -1.33; fewer than 50 cells in well = enough cells in well; outcome = active
Adam29 | Tnf reporter robust z-score = 1.5; fewer than 50 cells in well = enough cells in well; outcome = inactive
Erv3 | Tnf reporter robust z-score = 0.96; fewer than 50 cells in well = enough cells in well; outcome = inactive
Dnaaf10 | Tnf reporter robust z-score = 0.04; fewer than 50 cells in well = enough cells in well; outcome = inactive
Ctr9 | Tnf reporter robust z-score = -1.07; fewer than 50 cells in well = enough cells in well; outcome = inactive
Prl3d3 | Tnf reporter robust z-score = -0.83; fewer than 50 cells in well = enough cells in well; outcome = inactive
Serpinf1 | Tnf reporter robust z-score = -0.27; fewer than 50 cells in well = enough cells in well; outcome = inactive
Hoxd3 | Tnf reporter robust z-score = -0.21; fewer than 50 cells in well = enough cells in well; outcome = inactive

Active calls, among the entries above:
Tbca | Tnf reporter robust z-score = -1.37; fewer than 50 cells in well = enough cells in well; outcome = active
Irx3 | Tnf reporter robust z-score = -1.33; fewer than 50 cells in well = enough cells in well; outcome = active
